Assay results reported in patent publication US20200095339A1.
These are yes or no findings as the source states them, for the method shown.

Amino acid sequences for entries named in this document (tags omitted). Residues count along the entry.
UniProt Q08722, residues 19-323: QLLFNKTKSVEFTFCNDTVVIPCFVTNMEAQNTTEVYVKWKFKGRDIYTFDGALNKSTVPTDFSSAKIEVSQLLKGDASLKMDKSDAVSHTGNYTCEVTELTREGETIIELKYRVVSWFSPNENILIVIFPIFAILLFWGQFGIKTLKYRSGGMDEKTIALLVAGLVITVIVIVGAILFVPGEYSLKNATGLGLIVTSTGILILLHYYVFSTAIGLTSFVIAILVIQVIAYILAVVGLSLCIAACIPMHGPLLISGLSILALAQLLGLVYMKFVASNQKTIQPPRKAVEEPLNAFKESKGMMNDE

Target: human CD47 (human) (UniProt Q08722)
Experiment: FACS competition on Jurkat cells (CD20-CD47+) against 25 nM labelled SIRPα-Fc

B1: Rituximab (antibody, V domains shown)
VH: QVQLQQPGAELVKPGASVKMSCKASGYTFTSYNMHWVKQTPGRGLEWIGAIYPGNGDTSYNQKFKGKATLTADKSSSTAYMQLSSLTSEDSAVYYCARSTYYGGDWYFNVWGAGTTVTVSA
VL: QIVLSQSPAILSASPGEKVTMTCRASSSVSYIHWFQQKPGSSPKPWIYATSNLASGVPVRFSGSGSGTSYSLTISRVEAEDAATYYCQQWTSNPPTFGGGTKLEIK
binding: no binding (tested: about 500 nM)
